Data taken from PubChem BioAssay AID1671190 (National Center for Advancing Translational Sciences (NCATS), 2021).
“And” between values parts separate entries of the source, which are not always exact repeats. Equal values may be shown once. The whole screen tested about 580,000 compounds, of which about 6,100 (1.1%) were called active. The shares of active, inactive and inconclusive entries below differ from those in the screen. Calls come from the whole dose curve; as a rule, active = well fitted inhibition curve with a large enough effect; inconclusive = small, poorly fitted or top-dose-only effect, or another doubt; inactive = no such curve, though single readings can be large or run the other way. A potency beside an inconclusive call is a rough fit, not a confirmed value.
Potency is the fitted concentration of half-maximal effect.

Sequences of proteins named here, by UniProt entry; tags and fusion partners are left off. A change or cut given only in a name is not applied to a line headed by its entry.
UniProt P18054: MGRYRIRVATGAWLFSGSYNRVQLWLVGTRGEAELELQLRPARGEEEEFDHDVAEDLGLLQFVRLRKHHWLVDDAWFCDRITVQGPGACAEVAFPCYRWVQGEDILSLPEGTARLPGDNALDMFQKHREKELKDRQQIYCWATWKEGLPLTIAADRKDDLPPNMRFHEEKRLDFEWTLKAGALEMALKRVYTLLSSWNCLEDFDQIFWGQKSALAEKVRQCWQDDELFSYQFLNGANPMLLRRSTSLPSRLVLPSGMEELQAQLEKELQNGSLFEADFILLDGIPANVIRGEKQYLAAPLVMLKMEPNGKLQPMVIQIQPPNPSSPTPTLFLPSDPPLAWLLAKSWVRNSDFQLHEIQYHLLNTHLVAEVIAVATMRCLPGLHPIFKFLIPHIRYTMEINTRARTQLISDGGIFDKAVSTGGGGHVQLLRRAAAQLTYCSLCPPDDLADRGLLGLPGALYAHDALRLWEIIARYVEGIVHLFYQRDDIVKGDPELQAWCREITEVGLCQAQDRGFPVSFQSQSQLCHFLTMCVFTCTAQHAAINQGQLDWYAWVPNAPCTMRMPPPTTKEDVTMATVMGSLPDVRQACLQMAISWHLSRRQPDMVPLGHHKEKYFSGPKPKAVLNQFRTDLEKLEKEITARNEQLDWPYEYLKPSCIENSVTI

The compounds below were run against Polyunsaturated fatty acid lipoxygenase ALOX12 (Homo sapiens) (UniProt P18054) (assay: Primary qHTS assay for inhibitors of human arachidonate 12S-lipoxygenase (ALOX12): Round 2). Details: purified 12hLO, xylenol orange hydroperoxide absorbance; series mostly up to 108 µM.
Outline: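 Purified human 12hLO at 150 nM in 25 mM Hepes, 0.01% Triton X-100, pH 7.0, preincubated 15 min at room temperature with compound. Reaction started with 40 uM arachidonic acid, 30 min at room temperature. Hydroperoxide measured by Fe-xylenol orange, 573/405 nm absorbance ratio.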
In the case of COc1ccc(-n2c(=O)c(-c3ccc(Cl)cc3)nc3cnc(N(C)C)nc32)cc1, the Potency is reported as active: 11.2 µM. With C/C(=N\NC(=O)c1ccncc1)c1ccc(N2CCOCC2)cc1 the Potency was “inactive”. For NCC1CCN(c2nc3ccccc3c3c2CCCC3)CC1, the Potency was inconclusive: 63.1 µM [inhibitor, partial curve, poor fit]. O=C(O)c1nccnc1C(=O)NCc1csc2ccc(Cl)cc12 was tested, and the Potency was inconclusive: 2.82 µM [inhibitor, full curve, poor fit]. Cc1ccc(O)c(CNc2cccc3cccnc23)c1 was tested, and the Potency was “inactive”. With COc1ccc2c(C)c(CCC(=O)Nc3cc(C)ccc3F)c(=O)oc2c1 the Potency was “inactive”. With Cc1ccc2[nH]c3c(=O)n(CC(=O)N4CCN(c5cccc(C(F)(F)F)c5)CC4)ncc3c2c1 the Potency was inconclusive: 126 µM [inhibitor, partial curve, poor fit]. With Clc1ccc(C(c2ccccc2)N2CCNCC2)cc1 (stereo not given) the Potency was inconclusive: 126 µM [inhibitor, partial curve, poor fit]. For O=C1CCCCN1CC(=O)N1CCCC(CCc2ccc(F)cc2F)C1 (stereo not given), the Potency was “inactive”. CCNc1nc2c(c(=O)n(C)c(=O)n2C)n1CC(O)COc1ccccc1C (stereo not given) was tested, and the Potency was “inactive”. For Cc1cc(CNC(=O)Cn2nc(C)c([N+](=O)[O-])c2C)c2ccccc2n1, the Potency was “inactive”. For CCCCNc1c(-c2ccc(OC)c(SC3CCCCC3)c2)nc2ccc(C)cn12, the Potency was inconclusive: 79.4 µM [inhibitor, partial curve, poor fit] and inconclusive: 39.8 µM [inhibitor, partial curve, poor fit]. For O=C1CC(N(CCc2ccccc2)C(=S)Nc2ccccc2)C(=O)N1c1ccc(Br)cc1 (stereo not given), the Potency was inconclusive: 126 µM [inhibitor, partial curve, poor fit]. With CCC1=[N+](C)c2cccc3cccc(c23)N1C the Potency was inconclusive: 50.1 µM [inhibitor, partial curve, poor fit]. In the case of Cc1ccc(CN2CCNCC2)cc1NC(=O)CNc1ccc(F)c(F)c1, the Potency is reported as inconclusive: 12.2 µM [inhibitor, partial curve, poor fit]. For Cc1ccc(-n2c(=O)c3ccc(C(=O)NCc4ccccc4Cl)cc3n(CC(=O)Nc3cccc(F)c3)c2=O)cc1, the Potency was inconclusive: 112 µM [inhibitor, partial curve, poor fit]. In the case of Cc1cc(NC(=O)Cn2nc(C)n3cccc3c2=O)ccc1Br, the Potency is reported as inconclusive: 79.4 µM [inhibitor, partial curve, poor fit]. For CC(=O)Nc1cccc(/C(C)=N/Nc2ccc(S(=O)(=O)Nc3ccccc3C(=O)O)cc2[N+](=O)[O-])c1, the Potency was inconclusive: 100 µM [inhibitor, single point]. In the case of COc1ccc(C(CC(=O)O)NC(=O)c2ccco2)cc1OC (stereo not given), the Potency is reported as inconclusive: 0.501 µM [inhibitor, full curve, poor fit]. With COc1ccc(-n2c(SCC(=O)Nc3nccs3)nnc2-c2ccccc2)cc1 the Potency was inconclusive: 50.1 µM [inhibitor, partial curve, poor fit]. Cc1ccc(S(=O)(=O)c2cc3c(=O)n4ccccc4nc3n(Cc3ccco3)c2=N)cc1 was tested, and the Potency was inconclusive: 6.31 µM [inhibitor, full curve, poor fit]. For CCCCCc1ccco1, the Potency was inconclusive: 44.7 µM [inhibitor, partial curve, poor fit]. With CCOc1ccc(NC(=O)c2cccc(CN3CCCC3=O)c2)cc1 the Potency was inconclusive: 50.1 µM [inhibitor, partial curve, poor fit]. In the case of O=C(COc1ccccc1Br)NCCc1nc2ccccc2[nH]1, the Potency is reported as “inactive”. CCOc1ccc(C(=O)c2cccs2)cc1 was tested, and the Potency was inconclusive: 35.5 µM [inhibitor, partial curve, poor fit]. For O=c1c2c3c(sc2nc2n1CCCC2)CCC3, the Potency was “inactive”. With COc1cc(C(=S)NCc2ccccc2)cc(Br)c1O the Potency was active: 39.8 µM. In the case of CCCCc1ccc(S(=O)(=O)NNC(=S)NCc2ccco2)cc1, the Potency is reported as inconclusive: 11.2 µM [inhibitor, full curve, poor fit]. For CN(C)c1ncc2nc(-c3cccs3)c(=O)n(CCc3ccccc3)c2n1, the Potency was inconclusive: 44.7 µM [inhibitor, single point]. C/C(=N\Nc1ccc(Cl)c(C(=O)O)c1)c1ccc2c(c1)OCO2 was tested, and the Potency was inconclusive: 31.6 µM [inhibitor, partial curve, poor fit]. For CCOc1cccc(-c2noc(-c3ncn4c3COC(c3ccc(F)cc3)C4)n2)c1 (stereo not given), the Potency was inconclusive: 8.91 µM [inhibitor, full curve, poor fit]. CC(CCc1ccccc1)NC(=O)C1CCN(S(=O)(=O)c2cccc(Cl)c2Cl)CC1 (stereo not given) was tested, and the Potency was inconclusive: 89.1 µM [inhibitor, partial curve, poor fit]. With COc1ccc(OC)c(NC(=O)C(C)OC(=O)c2ccsc2)c1 (stereo not given) the Potency was “inactive”. With COc1ccccc1CNC(=O)COc1ccccc1OC the Potency was “inactive”. c1ccc(-c2cc(-c3ccccc3)[o+]c(-c3ccccc3)c2)cc1 was tested, and the Potency was active: 15.8 µM. COc1ccccc1C1NC=C([N+](=O)[O-])C=C1[N+](=O)[O-] (stereo not given) was tested, and the Potency was inconclusive: 44.7 µM [inhibitor, partial curve, poor fit]. CS(=O)(=O)N1CCC(C2CCN(C(=O)c3cccc(C#N)c3)C2)CC1 (stereo not given) was tested, and the Potency was inconclusive: 12.6 µM [inhibitor, full curve, poor fit]. With CN(C)/C=C/C(=O)/C=C/c1ccc(Cl)cc1 the Potency was inconclusive: 44.7 µM [inhibitor, partial curve, poor fit]. For CCC(Sc1ncccc1C(=O)O)C(=O)N1CCOCC1 (stereo not given), the Potency was inconclusive: 1.41 µM [inhibitor, full curve, poor fit]. In the case of O=C(CSc1nc2c(c(=O)[nH]1)CCCC2)Nc1ccc(Br)cc1, the Potency is reported as inconclusive: 100 µM [inhibitor, partial curve, poor fit]. In the case of COc1ccccc1N1CCN(Cc2c[nH]c3ccccc23)CC1, the Potency is reported as inconclusive: 112 µM [inhibitor, single point]. In the case of COc1ccccc1NC(=O)CSc1nc2ncccc2[nH]1, the Potency is reported as “inactive”. In the case of Clc1ccc(C2=Nn3c(Cn4nnc5ccccc54)nnc3SC2)cc1, the Potency is reported as inconclusive: 35.5 µM [inhibitor, partial curve, poor fit]. With O=C(/C=C/c1cccc(Br)c1)c1ccc2c(c1)OCO2 the Potency was inconclusive: 50.1 µM [inhibitor, partial curve, poor fit]. In the case of COC(=O)c1[nH]nc2c1C(=O)N(Cc1ccccc1)C2=O, the Potency is reported as inconclusive: 39.8 µM [inhibitor, partial curve, poor fit]. Cc1ccc(NC(=O)Cn2c(=O)n(CCC(=O)NCc3ccc4c(c3)OCO4)c(=O)c3sccc32)c(C)c1 was tested, and the Potency was inconclusive: 22.4 µM [inhibitor, partial curve, poor fit]. CCOc1ccccc1CN1CCC2(CCN(C(=O)N(C)C)CC2)Oc2ccccc21 was tested, and the Potency was inconclusive: 70.8 µM [inhibitor, partial curve]. CCc1nnc(NS(=O)(=O)c2ccc(NC(=O)c3cccc(OC)c3)cc2)s1 was tested, and the Potency was “inactive”. With O=c1cc(O)c2sc(Nc3cccc(C(F)(F)F)c3)nc2[nH]1 the Potency was inconclusive: 63.1 µM [inhibitor, partial curve, poor fit]. In the case of O=C(Nc1ccc(SC2CCCC2)cc1)C1CC1, the Potency is reported as “inactive”. With CC(=O)Nc1ccc(NC(=O)c2ccc3sc([C@H]4C[C@H](O)[C@@H](CO)O4)nc3c2)cc1 the Potency was inconclusive: 141 µM [inhibitor, single point]. Cc1ccc2c(c1)C1NC(=S)NC(C)(O2)C1C(=O)Nc1ccc(Cl)cc1 (stereo not given) was tested, and the Potency was active: 28.2 µM. For CN1C(=O)CCCCC1C(=O)NCCc1c[nH]c2ccccc12 (stereo not given), the Potency was “inactive”. CCc1ccccc1NC(=O)CN1C(=O)c2cccnc2Oc2ccc(Cl)cc21 was tested, and the Potency was inconclusive: 89.1 µM [inhibitor, partial curve, poor fit]. In the case of O=C(CN1CCN(S(=O)(=O)c2ccc(Br)cc2)CC1)Nc1ccc(F)cc1, the Potency is reported as inconclusive: 15.8 µM [inhibitor, partial curve, poor fit]. With NC(C(=O)O)C1ON=C(Cl)C1O (stereo not given) the Potency was inconclusive: 35.5 µM [inhibitor, partial curve, poor fit]. For O=C(Cn1cccc1-c1nc(-c2ccc(F)cc2)no1)NCCc1ccccc1, the Potency was “inactive”. For NS(=O)(=O)c1ccc(NC(=O)c2cc(-c3cccc4ccccc34)n[nH]2)cc1, the Potency was “inactive”. In the case of CCc1ccc(S(=O)(=O)N2CCCN(C)c3ccccc32)cc1, the Potency is reported as inconclusive: 28.2 µM [inhibitor, full curve, poor fit]. CC(CN1CCN(c2ccccc2)CC1)c1ccccc1 (stereo not given) was tested, and the Potency was inconclusive: 12.6 µM [inhibitor, full curve, poor fit]. For NC(N)=N/N=C(\N=Nc1ccccc1)c1ccc(Cl)cc1, the Potency was inconclusive: 56.2 µM [inhibitor, partial curve, poor fit]. With CO[C@H]1C(=O)[C@]2(C)[C@@H](OC)C[C@H]3OC[C@@]3(OC(C)=O)[C@H]2[C@H](OC(=O)c2ccccc2)[C@]2(O)C[C@H](OC(=O)[C@H](O)[C@@H](NC(=O)OC(C)(C)C)c3ccccc3)C(C)=C1C2(C)C the Potency was “inactive”. With COc1ccc2nc(C)c(C(=O)Nc3ccc4ccccc4n3)cc2c1 the Potency was “inactive”. For Cc1cc(N2C(=O)C(O)=C(C(=O)c3ccc(C)o3)C2c2cccs2)no1 (stereo not given), the Potency was inconclusive: 25.1 µM [inhibitor, partial curve, poor fit]. CCC(C)[C@H](NC(=O)NCCc1ccc(Cl)cc1)C(=O)O (stereo not given in full) was tested, and the Potency was inconclusive: 44.7 µM [inhibitor, partial curve].
